# According to the supplement of paper PMC10849652:
# Chains of the proteins cited; added tags and fusions are not shown. Lines headed by an entry give the natural chain unless they say otherwise; changes in a name come on top.
# UniProt O00628: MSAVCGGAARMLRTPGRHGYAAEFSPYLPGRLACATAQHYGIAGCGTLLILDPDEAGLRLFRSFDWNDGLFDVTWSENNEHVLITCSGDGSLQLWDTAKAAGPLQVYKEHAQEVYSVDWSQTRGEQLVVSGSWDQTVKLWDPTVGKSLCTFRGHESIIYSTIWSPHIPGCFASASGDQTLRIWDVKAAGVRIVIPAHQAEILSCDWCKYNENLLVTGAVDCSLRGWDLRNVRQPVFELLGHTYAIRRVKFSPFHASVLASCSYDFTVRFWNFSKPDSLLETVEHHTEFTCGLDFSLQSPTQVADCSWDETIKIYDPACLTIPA
# UniProt Q9H4Z3: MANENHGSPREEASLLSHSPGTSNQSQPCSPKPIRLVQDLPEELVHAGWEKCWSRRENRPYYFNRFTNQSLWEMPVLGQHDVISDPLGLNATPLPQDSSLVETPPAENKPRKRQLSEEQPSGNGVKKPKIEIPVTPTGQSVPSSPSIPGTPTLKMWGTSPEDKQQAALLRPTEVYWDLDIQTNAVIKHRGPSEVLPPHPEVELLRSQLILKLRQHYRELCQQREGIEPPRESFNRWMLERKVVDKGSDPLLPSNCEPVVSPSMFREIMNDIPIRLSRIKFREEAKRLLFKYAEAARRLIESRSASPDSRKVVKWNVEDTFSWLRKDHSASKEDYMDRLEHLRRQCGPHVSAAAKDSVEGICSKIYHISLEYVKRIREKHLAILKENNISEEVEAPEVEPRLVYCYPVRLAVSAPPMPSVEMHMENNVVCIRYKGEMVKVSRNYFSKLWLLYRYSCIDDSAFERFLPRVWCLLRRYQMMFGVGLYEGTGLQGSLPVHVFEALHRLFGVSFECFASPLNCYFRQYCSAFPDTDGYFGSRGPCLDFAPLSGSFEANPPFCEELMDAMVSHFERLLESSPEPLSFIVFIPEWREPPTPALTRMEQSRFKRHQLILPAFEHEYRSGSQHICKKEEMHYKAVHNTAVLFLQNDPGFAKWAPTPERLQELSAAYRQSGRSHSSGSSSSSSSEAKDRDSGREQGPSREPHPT
# UniProt Q8NBM8: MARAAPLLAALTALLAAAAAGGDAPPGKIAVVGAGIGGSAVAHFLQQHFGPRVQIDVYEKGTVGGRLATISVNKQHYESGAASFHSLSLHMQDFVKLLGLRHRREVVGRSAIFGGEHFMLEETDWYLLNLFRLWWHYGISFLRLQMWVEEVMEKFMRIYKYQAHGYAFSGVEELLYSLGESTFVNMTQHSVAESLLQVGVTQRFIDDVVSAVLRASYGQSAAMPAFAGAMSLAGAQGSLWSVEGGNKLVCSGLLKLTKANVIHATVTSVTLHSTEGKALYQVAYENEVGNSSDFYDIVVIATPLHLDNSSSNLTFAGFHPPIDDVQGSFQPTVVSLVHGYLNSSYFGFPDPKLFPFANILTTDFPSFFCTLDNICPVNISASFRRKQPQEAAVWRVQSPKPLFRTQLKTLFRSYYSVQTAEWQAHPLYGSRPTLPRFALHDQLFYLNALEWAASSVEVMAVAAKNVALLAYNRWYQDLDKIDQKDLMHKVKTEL
# UniProt Q15154: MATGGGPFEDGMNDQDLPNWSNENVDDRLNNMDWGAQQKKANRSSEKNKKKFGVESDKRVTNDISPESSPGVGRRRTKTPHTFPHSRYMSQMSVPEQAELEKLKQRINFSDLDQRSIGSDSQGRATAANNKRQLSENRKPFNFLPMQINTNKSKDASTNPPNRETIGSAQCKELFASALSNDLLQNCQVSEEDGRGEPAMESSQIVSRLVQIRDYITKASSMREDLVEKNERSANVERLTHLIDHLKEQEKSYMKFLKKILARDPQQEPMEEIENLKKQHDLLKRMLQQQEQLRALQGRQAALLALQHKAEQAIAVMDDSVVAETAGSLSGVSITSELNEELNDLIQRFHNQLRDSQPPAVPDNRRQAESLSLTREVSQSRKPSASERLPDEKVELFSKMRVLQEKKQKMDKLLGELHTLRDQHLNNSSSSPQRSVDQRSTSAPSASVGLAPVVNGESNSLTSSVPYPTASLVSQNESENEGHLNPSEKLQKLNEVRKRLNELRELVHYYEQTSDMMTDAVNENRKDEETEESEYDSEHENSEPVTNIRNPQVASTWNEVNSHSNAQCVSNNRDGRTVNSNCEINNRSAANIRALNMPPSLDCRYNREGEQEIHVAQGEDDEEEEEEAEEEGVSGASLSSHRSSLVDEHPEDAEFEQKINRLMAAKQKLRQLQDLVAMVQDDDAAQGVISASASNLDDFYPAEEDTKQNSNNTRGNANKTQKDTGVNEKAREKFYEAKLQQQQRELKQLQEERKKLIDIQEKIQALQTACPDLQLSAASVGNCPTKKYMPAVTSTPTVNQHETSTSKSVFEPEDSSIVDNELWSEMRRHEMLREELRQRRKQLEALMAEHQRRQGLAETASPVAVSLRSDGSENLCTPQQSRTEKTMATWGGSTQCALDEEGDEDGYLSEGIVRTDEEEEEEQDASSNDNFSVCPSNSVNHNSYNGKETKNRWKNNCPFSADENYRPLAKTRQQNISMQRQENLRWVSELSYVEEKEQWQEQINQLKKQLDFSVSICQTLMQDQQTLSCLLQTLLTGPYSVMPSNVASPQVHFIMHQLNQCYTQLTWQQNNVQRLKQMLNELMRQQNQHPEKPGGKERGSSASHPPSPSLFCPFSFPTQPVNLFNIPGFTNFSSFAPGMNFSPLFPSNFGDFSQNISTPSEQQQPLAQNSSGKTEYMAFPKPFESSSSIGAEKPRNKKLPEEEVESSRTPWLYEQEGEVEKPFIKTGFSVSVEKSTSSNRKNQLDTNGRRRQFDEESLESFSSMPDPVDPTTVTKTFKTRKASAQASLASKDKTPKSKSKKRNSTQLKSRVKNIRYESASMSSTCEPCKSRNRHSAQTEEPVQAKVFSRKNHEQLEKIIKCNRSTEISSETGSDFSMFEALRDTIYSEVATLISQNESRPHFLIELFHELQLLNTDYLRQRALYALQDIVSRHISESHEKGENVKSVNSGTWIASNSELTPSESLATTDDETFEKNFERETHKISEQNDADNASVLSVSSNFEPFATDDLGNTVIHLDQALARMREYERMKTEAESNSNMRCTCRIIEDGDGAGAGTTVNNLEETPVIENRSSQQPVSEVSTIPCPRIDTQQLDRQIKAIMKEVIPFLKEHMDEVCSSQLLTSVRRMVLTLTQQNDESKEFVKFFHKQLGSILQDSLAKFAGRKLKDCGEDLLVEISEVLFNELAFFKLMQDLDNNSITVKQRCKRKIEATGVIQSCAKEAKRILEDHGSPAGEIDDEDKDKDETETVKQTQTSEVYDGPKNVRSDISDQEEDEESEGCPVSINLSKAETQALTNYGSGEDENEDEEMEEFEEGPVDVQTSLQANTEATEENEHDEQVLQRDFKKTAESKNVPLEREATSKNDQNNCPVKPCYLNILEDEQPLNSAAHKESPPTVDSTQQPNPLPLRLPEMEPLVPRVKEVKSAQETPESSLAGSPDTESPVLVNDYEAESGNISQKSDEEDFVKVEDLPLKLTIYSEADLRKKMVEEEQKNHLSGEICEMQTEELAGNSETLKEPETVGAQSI
# UniProt Q9NR12, whole entry, looked up: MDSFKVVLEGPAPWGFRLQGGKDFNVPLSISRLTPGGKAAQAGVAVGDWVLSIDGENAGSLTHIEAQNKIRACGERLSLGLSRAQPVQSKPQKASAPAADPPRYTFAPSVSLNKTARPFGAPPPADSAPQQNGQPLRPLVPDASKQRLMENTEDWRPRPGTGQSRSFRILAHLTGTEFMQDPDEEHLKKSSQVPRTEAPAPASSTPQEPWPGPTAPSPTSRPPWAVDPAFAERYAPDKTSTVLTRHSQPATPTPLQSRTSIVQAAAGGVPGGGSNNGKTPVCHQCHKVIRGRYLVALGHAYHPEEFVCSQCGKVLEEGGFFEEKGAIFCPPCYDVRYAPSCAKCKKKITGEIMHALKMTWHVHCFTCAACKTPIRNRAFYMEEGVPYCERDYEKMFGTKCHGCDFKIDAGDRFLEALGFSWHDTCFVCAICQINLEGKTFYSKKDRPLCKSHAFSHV
# UniProt Q9HBH1: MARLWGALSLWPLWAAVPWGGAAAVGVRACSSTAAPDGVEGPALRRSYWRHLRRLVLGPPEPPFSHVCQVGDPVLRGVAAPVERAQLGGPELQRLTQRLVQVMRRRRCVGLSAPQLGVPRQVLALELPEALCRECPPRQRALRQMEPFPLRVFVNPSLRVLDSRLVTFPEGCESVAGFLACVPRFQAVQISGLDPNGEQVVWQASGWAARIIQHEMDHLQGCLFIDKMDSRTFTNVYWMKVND
# UniProt Q86YH6: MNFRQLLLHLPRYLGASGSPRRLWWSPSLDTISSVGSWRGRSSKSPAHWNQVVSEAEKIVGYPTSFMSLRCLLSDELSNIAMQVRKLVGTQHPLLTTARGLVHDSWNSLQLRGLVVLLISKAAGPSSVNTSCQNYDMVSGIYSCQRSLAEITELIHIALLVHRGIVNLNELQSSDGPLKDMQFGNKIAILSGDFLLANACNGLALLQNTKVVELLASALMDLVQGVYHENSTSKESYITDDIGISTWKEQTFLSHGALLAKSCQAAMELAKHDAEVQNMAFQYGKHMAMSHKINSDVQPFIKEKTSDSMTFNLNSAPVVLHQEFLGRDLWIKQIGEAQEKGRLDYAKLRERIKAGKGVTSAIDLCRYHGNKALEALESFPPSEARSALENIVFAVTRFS
# UniProt Q9BYE7: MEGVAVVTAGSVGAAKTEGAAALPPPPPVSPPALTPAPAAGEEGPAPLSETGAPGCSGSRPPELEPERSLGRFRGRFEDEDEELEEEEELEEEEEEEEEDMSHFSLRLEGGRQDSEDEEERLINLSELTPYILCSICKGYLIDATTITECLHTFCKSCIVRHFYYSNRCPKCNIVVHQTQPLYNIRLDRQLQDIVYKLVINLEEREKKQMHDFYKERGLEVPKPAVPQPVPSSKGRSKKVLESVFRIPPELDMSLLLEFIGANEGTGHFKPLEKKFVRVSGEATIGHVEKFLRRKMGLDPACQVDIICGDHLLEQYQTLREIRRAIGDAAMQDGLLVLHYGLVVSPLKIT
# UniProt Q99447: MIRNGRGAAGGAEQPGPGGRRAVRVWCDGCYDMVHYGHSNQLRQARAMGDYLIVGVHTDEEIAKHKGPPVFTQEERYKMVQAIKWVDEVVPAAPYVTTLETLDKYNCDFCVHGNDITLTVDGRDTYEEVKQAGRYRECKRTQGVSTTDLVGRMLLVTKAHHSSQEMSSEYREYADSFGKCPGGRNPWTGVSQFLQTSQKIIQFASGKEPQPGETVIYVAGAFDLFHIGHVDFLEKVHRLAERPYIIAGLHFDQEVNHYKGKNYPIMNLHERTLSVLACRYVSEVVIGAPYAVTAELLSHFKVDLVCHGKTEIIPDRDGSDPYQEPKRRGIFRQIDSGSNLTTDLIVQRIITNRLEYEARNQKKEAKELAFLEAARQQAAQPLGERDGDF
# UniProt P35558, whole entry, looked up: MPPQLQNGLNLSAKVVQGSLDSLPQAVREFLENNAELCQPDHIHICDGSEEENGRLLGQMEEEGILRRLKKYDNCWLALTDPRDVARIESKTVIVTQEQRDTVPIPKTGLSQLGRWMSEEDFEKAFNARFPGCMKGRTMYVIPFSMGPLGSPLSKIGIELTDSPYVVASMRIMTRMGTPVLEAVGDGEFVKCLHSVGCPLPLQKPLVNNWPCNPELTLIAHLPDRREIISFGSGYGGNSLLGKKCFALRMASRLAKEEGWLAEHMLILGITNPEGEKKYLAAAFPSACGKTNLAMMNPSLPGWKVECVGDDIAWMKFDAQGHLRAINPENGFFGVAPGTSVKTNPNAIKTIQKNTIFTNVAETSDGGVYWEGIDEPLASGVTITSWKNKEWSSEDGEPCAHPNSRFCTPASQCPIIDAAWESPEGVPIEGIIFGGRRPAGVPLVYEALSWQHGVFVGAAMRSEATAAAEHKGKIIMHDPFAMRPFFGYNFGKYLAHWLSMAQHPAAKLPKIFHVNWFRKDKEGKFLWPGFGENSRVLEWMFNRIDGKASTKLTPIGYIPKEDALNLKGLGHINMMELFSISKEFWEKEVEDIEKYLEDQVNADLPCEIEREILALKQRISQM
# The list shows a part of the results.
# Assays:
# Experiment in all cases: log2 fold change, soluble protein after heating vs DMSO (PISA); higher = thermal stabilisation; K562 lysate, 10 uM; active = over 0.2 and 3.5 SD of the protein, either way, in both replicates (recomputed)
# vemurafenib = compound: CCCS(=O)(=O)Nc1ccc(F)c(C(=O)c2c[nH]c3ncc(-c4ccc(Cl)cc4)cc23)c1F [vemurafenib]
# In short: (§1)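 A 30 min treatment with 10 μM compound was applied to crude K562 extract at 1 mg/mL protein in PBS pH 7.4 with 1 mM MgCl2. Heating for 3 min spanned 48°C-58°C, after which aliquots were pooled, adjusted to 0.5% NP-40 at 4°C and spun at 21,000xg for 90 min. TMTpro 16plex LC-MS/MS of the supernatant, with channel sums equalised, gave values recorded as log-two fold change in thermal stability against solvent controls, from duplicates.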
# [1] = compound: CCCS(=O)(=O)Nc1ccc(F)c(C(=O)c2c[nH]c3ncc(Cl)cc23)c1F
# In short: as §1
# [2] = compound: CC[C@@H]1C(=O)N(C)c2cnc(Nc3ccc(C(=O)NC4CCN(C)CC4)cc3OC)nc2N1C1CCCC1
# In short: as §1
# volasertib = compound: CC[C@@H]1C(=O)N(C)c2cnc(Nc3ccc(C(=O)N[C@H]4CC[C@H](N5CCN(CC6CC6)CC5)CC4)cc3OC)nc2N1C(C)C [volasertib]
# In short: as §1
# [3] = compound: CCn1c(C(=O)N(C2CC2)C2CC2)cc2c3c(ncn3C)c(Nc3cc(C)n(C)n3)nc21
# In short: as §1
# sotrastaurin = compound: CN1CCN(c2nc(C3=C(c4c[nH]c5ccccc45)C(=O)NC3=O)c3ccccc3n2)CC1 [sotrastaurin]
# In short: as §1
# Tubastatin A = compound: CN1CCc2c(c3ccccc3n2Cc2ccc(C(=O)NO)cc2)C1 [Tubastatin A]
# In short: as §1
# defactinib = compound: CNC(=O)c1ccc(Nc2ncc(C(F)(F)F)c(NCc3nccnc3N(C)S(C)(=O)=O)n2)cc1 [defactinib]
# In short: as §1
# encorafenib = compound: COC(=O)N[C@@H](C)CNc1nccc(-c2cn(C(C)C)nc2-c2cc(Cl)cc(NS(C)(=O)=O)c2F)n1 [encorafenib]
# In short: as §1
# [4] = compound: COC(=O)[C@H](CCSC)NC(=O)C1=C(C=C(C=C1)NC[C@H](CS)N)C2=CC=CC=C2
# In short: as §1
# [5] = compound: COc1cc2nc(-c3cc(F)ccc3O)nc(N[C@@H]3CNC[C@H]3C(C)(C)O)c2cc1OC
# In short: as §1
# barasertib = compound: CCN(CCCOc1ccc2c(Nc3cc(CC(=O)Nc4cccc(F)c4)[nH]n3)ncnc2c1)CCOP(=O)(O)O [barasertib]
# In short: as §1
# [6] = compound: CCn1cc(-c2ccnc3[nH]c(-c4cccc(CN(C)C)c4)cc23)c(-c2ccc(NC(=O)N(C)C)cc2)n1
# In short: as §1
# [7] = compound: CN1CCC(CNc2ccc3ncc(-c4cccc(OC(F)(F)F)c4)n3n2)CC1
# In short: as §1
# saracatinib = compound: CN1CCN(CCOc2cc(OC3CCOCC3)c3c(Nc4c(Cl)ccc5c4OCO5)ncnc3c2)CC1 [saracatinib]
# In short: as §1
# alvocidib = compound: CN1CC[C@H](c2c(O)cc(O)c3c(=O)cc(-c4ccccc4Cl)oc23)[C@H](O)C1 [alvocidib]
# In short: as §1
# [8] = compound: CNc1nc(-c2ccc3c(N)n[nH]c3c2)cc(N2C[C@@H](C(=O)NC3CCCCC3)CC[C@H]2C)n1
# In short: as §1
# [9] = compound: CNC(=O)C1=CC=CC=C1NC2=NC(=NC=C2Cl)NC3=C(C=C(C=C3)N4CCOCC4)OC
# In short: as §1
# alisertib = compound: COc1cc(Nc2ncc3c(n2)-c2ccc(Cl)cc2C(c2c(F)cccc2OC)=NC3)ccc1C(=O)O [alisertib]
# In short: as §1
# gefitinib = compound: COc1cc2ncnc(Nc3ccc(F)c(Cl)c3)c2cc1OCCCN1CCOCC1 [gefitinib]
# In short: as §1
Target,log2 fold change (vemurafenib),log2 fold change [1],log2 fold change [2],log2 fold change (volasertib),log2 fold change [3],log2 fold change (sotrastaurin),log2 fold change (Tubastatin A),log2 fold change (defactinib),log2 fold change (encorafenib),log2 fold change [4],log2 fold change [5],log2 fold change (barasertib),log2 fold change [6],log2 fold change [7],log2 fold change (saracatinib),log2 fold change (alvocidib),log2 fold change [8],log2 fold change [9],log2 fold change (alisertib),log2 fold change (gefitinib)
PEX1 (UniProt O43933),inactive: -0.34,inactive: 0.076,inactive: -0.159,inactive: 0.055,inactive: 0.039,inactive: -0.03,inactive: -0.188,inactive: 0.119,inactive: -0.09,inactive: -0.137,inactive: 0.071,,,,,,,,,
PEX7 (UniProt O00628),inactive: 0.059,inactive: 0.078,inactive: 0.038,inactive: -0.008,inactive: 0.026,,inactive: -0.077,inactive: -0.061,inactive: 0.056,inactive: -0.379,inactive: 0,inactive: 0.054,inactive: -0.173,inactive: 0.091,inactive: -0.046,inactive: -0.089,inactive: -0.05,,,
PCIF1 (UniProt Q9H4Z3),inactive: 0.03,inactive: -0.012,inactive: 0.023,inactive: 0.005,inactive: 0.029,inactive: -0.036,inactive: 0.006,inactive: 0.051,inactive: 0.017,inactive: 0.02,inactive: 0.01,inactive: 0.088,inactive: -0.223,inactive: 0.011,inactive: -0.001,inactive: 0.038,inactive: 0.02,inactive: -0.024,inactive: 0.04,inactive: -0.051
PCYOX1L (UniProt Q8NBM8),inactive: 0.058,inactive: 0.058,inactive: -0.001,inactive: 0.005,inactive: -0.023,inactive: 0.027,inactive: 0.041,inactive: -0.009,inactive: 0.087,inactive: -0.03,inactive: 0.04,inactive: -0.004,inactive: -0.012,inactive: 0.124,inactive: -0.012,inactive: 0.002,inactive: 0.014,inactive: 0.012,inactive: 0.004,inactive: -0.016
PCM1 (UniProt Q15154),inactive: 0.006,inactive: -0.008,inactive: -0.011,inactive: -0.026,inactive: -0.015,inactive: 0.014,inactive: -0.048,inactive: 0.014,inactive: 0.042,inactive: -0.029,inactive: 0.021,inactive: 0.01,inactive: -0.039,inactive: -0.001,inactive: 0.036,inactive: -0.003,inactive: 0.018,inactive: 0,inactive: -0.04,inactive: 0.002
PDLIM7 (UniProt Q9NR12),inactive: 0.009,inactive: 0.006,inactive: 0.025,inactive: -0.008,inactive: 0.009,inactive: -0.023,inactive: 0.034,inactive: 0.022,inactive: 0.025,inactive: -0.086,inactive: -0.002,inactive: 0.027,inactive: -0.044,inactive: -0.005,inactive: -0.021,inactive: 0.011,inactive: 0.018,inactive: 0.012,inactive: 0.015,inactive: -0.008
PARP9 (UniProt Q8IXQ6),inactive: 0.11,inactive: 0.007,inactive: -0.128,inactive: 0.048,inactive: -0.192,inactive: -0.093,inactive: 0.058,inactive: -0.035,inactive: 0.038,inactive: 0.119,inactive: 0.079,inactive: 0.045,,,inactive: -0.106,,inactive: -0.189,inactive: -0.126,,
PDF (UniProt Q9HBH1),inactive: -0.012,inactive: 0.03,inactive: -0.118,inactive: -0.004,inactive: 0.01,inactive: -0.02,inactive: -0.065,inactive: 0.059,inactive: 0.028,active: -0.293,inactive: -0.181,inactive: 0.028,inactive: -0.014,inactive: -0.181,inactive: 0.032,inactive: 0.01,inactive: 0.011,inactive: 0.083,inactive: 0.048,inactive: -0.064
PDSS2 (UniProt Q86YH6),inactive: -0.062,inactive: 0.015,,inactive: -0.005,inactive: -0.022,inactive: 0.039,inactive: 0.098,inactive: 0.036,,,inactive: 0.101,inactive: -0.075,inactive: 0.104,inactive: -0.006,inactive: 0.096,inactive: 0.059,inactive: 0.032,inactive: 0.001,inactive: 0.037,inactive: 0.002
PCGF6 (UniProt Q9BYE7),inactive: -0.132,inactive: -0.286,,inactive: -0.083,inactive: 0.03,inactive: 0.021,inactive: -0.019,inactive: 0.085,,,inactive: -0.036,,inactive: -0.111,inactive: 0.098,inactive: -0.04,inactive: 0.022,inactive: 0.047,inactive: 0.045,inactive: -0.068,inactive: 0.127
PCYT2 isoform 3 (UniProt Q99447),inactive: 0.003,inactive: -0.017,inactive: 0.03,inactive: -0.044,inactive: -0.002,inactive: 0.009,inactive: -0.018,inactive: -0.017,inactive: 0.007,inactive: -0.079,inactive: -0.002,inactive: 0.053,inactive: -0.069,inactive: 0.02,inactive: -0.007,inactive: -0.046,inactive: -0.043,inactive: -0.004,inactive: -0.029,inactive: 0.036
PCK1 (UniProt P35558),inactive: 0.2,inactive: 0.026,,inactive: -0.117,,,,inactive: -0.106,,,inactive: 0.121,inactive: 0.287,inactive: -1.18,inactive: 0.461,,inactive: -0.396,,,,

# Single entries from the list.
# log2 fold change [9] with PDSS2 (UniProt Q86YH6) reads inactive: 0.001
# log2 fold change [6] with PCK1 (UniProt P35558) reads inactive: -1.18
